In patent US6694171B1, “X-ray imaging of tumors with dextran carrier of platinum compounds” (Yeda Research and Development, priority 1997, dated 2004):

Assay: CT imaging of Plexiglas phantom with Pt solutions (FIGS. 8-9)

[Cl][Pt-2]([Cl])([Cl])([Cl])([Cl])[Cl].[Na+].[Na+] [Pt, Na2PtCl6]
average gray level in CT image (10 μg/ml Pt in aqueous solution, 1 mm slice): 36.1
average gray level in CT image (30 μg/ml Pt): 43.0
average gray level in CT image (100 μg/ml Pt): 51.3
average gray level in CT image (300 μg/ml Pt): 75.7
average gray level in CT image (1000 μg/ml Pt): 132.1
